Experimental data taken from paper PMC10359276, “Involvement of skin TRPV3 in temperature detection regulated by TMEM79 in mice” (Nature Communications, 2023).
These are yes or no findings as the source states them, for the method shown. In cells and extracts the contact can be indirect. Some results given as binding are weak or reduced against the parent protein; the word gives no strength. For part of these data: Where a sequence is shown, tags or fusion partners need not be part of it.

Experiments:
[1] = molecular target: T1, C-terminal Flag-tagged mouse TMEM79 (mouse) (UniProt Q9D709); assay: co-IP; HEK293T cells co-transfected with myc-Trpv3 and Tmem79-flag; RIPA lysate; IP with mouse anti-MYC or mouse anti-FLAG overnight at 4 °C, protein G beads; blots with anti-myc and anti-flag
T1 sequence: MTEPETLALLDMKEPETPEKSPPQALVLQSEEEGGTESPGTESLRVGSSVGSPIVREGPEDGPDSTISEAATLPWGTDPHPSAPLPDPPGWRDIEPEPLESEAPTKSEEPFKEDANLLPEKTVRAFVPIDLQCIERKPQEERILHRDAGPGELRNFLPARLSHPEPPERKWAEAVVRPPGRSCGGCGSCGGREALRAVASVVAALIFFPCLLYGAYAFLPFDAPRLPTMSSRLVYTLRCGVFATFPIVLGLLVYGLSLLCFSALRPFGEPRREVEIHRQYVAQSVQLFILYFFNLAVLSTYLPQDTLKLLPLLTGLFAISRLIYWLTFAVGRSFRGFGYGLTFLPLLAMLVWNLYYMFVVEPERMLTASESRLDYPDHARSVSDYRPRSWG

[2] = molecular target: T2, N-terminal myc-tagged mouse TRPV3 (mouse) (UniProt Q8K424); assay: as above
T2 sequence: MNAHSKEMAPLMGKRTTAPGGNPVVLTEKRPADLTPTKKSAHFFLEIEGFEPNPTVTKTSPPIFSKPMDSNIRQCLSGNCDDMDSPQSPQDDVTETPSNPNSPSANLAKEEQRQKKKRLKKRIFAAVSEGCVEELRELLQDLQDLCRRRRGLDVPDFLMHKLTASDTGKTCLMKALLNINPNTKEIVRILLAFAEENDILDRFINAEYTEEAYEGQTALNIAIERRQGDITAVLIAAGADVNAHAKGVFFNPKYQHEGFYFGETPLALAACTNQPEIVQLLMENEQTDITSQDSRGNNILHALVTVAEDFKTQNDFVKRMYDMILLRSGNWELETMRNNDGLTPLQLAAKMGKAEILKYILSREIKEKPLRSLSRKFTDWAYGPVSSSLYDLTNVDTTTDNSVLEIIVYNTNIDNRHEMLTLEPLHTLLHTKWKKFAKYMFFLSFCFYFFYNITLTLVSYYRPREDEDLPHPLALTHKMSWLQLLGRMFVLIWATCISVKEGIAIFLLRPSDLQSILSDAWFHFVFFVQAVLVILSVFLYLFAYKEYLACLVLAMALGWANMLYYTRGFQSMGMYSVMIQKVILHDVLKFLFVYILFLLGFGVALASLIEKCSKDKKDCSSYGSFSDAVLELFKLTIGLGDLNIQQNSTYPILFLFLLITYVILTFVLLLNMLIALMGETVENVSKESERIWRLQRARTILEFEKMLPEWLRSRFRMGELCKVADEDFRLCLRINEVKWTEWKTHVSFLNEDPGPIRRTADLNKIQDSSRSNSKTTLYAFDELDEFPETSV

[3] = molecular target: T3, mouse TMEM79 (construct of the PLA assay) (mouse) (UniProt Q9D709); assay: proximity ligation; Duolink PLA in fixed, permeabilised HEK293 cells transfected with mTRPV3 and mTMEM79; mouse anti-TRPV3 and rabbit anti-TMEM79 primary antibodies; control: empty vectors
T3 sequence: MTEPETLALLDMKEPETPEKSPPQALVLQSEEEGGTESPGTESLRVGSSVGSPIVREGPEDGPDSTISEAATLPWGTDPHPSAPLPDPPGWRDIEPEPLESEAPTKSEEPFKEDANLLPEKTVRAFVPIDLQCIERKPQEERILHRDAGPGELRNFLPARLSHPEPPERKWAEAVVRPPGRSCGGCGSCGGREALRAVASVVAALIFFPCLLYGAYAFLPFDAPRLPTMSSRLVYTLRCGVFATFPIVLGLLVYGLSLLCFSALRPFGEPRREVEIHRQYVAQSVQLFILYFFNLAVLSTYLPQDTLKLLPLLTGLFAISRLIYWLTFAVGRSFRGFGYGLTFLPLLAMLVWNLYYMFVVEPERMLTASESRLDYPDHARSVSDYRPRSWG

B1: N-terminal myc-tagged mouse TRPV3 (protein, UniProt Q8K424 1-791)
chain: MNAHSKEMAPLMGKRTTAPGGNPVVLTEKRPADLTPTKKSAHFFLEIEGFEPNPTVTKTSPPIFSKPMDSNIRQCLSGNCDDMDSPQSPQDDVTETPSNPNSPSANLAKEEQRQKKKRLKKRIFAAVSEGCVEELRELLQDLQDLCRRRRGLDVPDFLMHKLTASDTGKTCLMKALLNINPNTKEIVRILLAFAEENDILDRFINAEYTEEAYEGQTALNIAIERRQGDITAVLIAAGADVNAHAKGVFFNPKYQHEGFYFGETPLALAACTNQPEIVQLLMENEQTDITSQDSRGNNILHALVTVAEDFKTQNDFVKRMYDMILLRSGNWELETMRNNDGLTPLQLAAKMGKAEILKYILSREIKEKPLRSLSRKFTDWAYGPVSSSLYDLTNVDTTTDNSVLEIIVYNTNIDNRHEMLTLEPLHTLLHTKWKKFAKYMFFLSFCFYFFYNITLTLVSYYRPREDEDLPHPLALTHKMSWLQLLGRMFVLIWATCISVKEGIAIFLLRPSDLQSILSDAWFHFVFFVQAVLVILSVFLYLFAYKEYLACLVLAMALGWANMLYYTRGFQSMGMYSVMIQKVILHDVLKFLFVYILFLLGFGVALASLIEKCSKDKKDCSSYGSFSDAVLELFKLTIGLGDLNIQQNSTYPILFLFLLITYVILTFVLLLNMLIALMGETVENVSKESERIWRLQRARTILEFEKMLPEWLRSRFRMGELCKVADEDFRLCLRINEVKWTEWKTHVSFLNEDPGPIRRTADLNKIQDSSRSNSKTTLYAFDELDEFPETSV
**Q.** For B1, which binding [1] is on record?
**A.** binds

B2: C-terminal Flag-tagged mouse TMEM79 (protein, UniProt Q9D709 1-391)
chain: MTEPETLALLDMKEPETPEKSPPQALVLQSEEEGGTESPGTESLRVGSSVGSPIVREGPEDGPDSTISEAATLPWGTDPHPSAPLPDPPGWRDIEPEPLESEAPTKSEEPFKEDANLLPEKTVRAFVPIDLQCIERKPQEERILHRDAGPGELRNFLPARLSHPEPPERKWAEAVVRPPGRSCGGCGSCGGREALRAVASVVAALIFFPCLLYGAYAFLPFDAPRLPTMSSRLVYTLRCGVFATFPIVLGLLVYGLSLLCFSALRPFGEPRREVEIHRQYVAQSVQLFILYFFNLAVLSTYLPQDTLKLLPLLTGLFAISRLIYWLTFAVGRSFRGFGYGLTFLPLLAMLVWNLYYMFVVEPERMLTASESRLDYPDHARSVSDYRPRSWG
**Q.** B2 was tested. Which binding [2] did it give?
**A.** binds

B3: mouse TRPV3 (construct of the PLA assay) (protein, UniProt Q8K424 1-791)
chain: MNAHSKEMAPLMGKRTTAPGGNPVVLTEKRPADLTPTKKSAHFFLEIEGFEPNPTVTKTSPPIFSKPMDSNIRQCLSGNCDDMDSPQSPQDDVTETPSNPNSPSANLAKEEQRQKKKRLKKRIFAAVSEGCVEELRELLQDLQDLCRRRRGLDVPDFLMHKLTASDTGKTCLMKALLNINPNTKEIVRILLAFAEENDILDRFINAEYTEEAYEGQTALNIAIERRQGDITAVLIAAGADVNAHAKGVFFNPKYQHEGFYFGETPLALAACTNQPEIVQLLMENEQTDITSQDSRGNNILHALVTVAEDFKTQNDFVKRMYDMILLRSGNWELETMRNNDGLTPLQLAAKMGKAEILKYILSREIKEKPLRSLSRKFTDWAYGPVSSSLYDLTNVDTTTDNSVLEIIVYNTNIDNRHEMLTLEPLHTLLHTKWKKFAKYMFFLSFCFYFFYNITLTLVSYYRPREDEDLPHPLALTHKMSWLQLLGRMFVLIWATCISVKEGIAIFLLRPSDLQSILSDAWFHFVFFVQAVLVILSVFLYLFAYKEYLACLVLAMALGWANMLYYTRGFQSMGMYSVMIQKVILHDVLKFLFVYILFLLGFGVALASLIEKCSKDKKDCSSYGSFSDAVLELFKLTIGLGDLNIQQNSTYPILFLFLLITYVILTFVLLLNMLIALMGETVENVSKESERIWRLQRARTILEFEKMLPEWLRSRFRMGELCKVADEDFRLCLRINEVKWTEWKTHVSFLNEDPGPIRRTADLNKIQDSSRSNSKTTLYAFDELDEFPETSV
**Q.** With B3 as the binder, how does the binding [3] read?
**A.** binds
